PubChem BioAssay AID1159579 – Peter MacCallum Cancer Centre | 2015

Test: 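Find genes whose silencing alters migration of lymphatic endothelial cells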 (follow-up of hits)
Cell system: human dermal lymphatic endothelial cells
Reagent: single siRNA against human genes, 25 nM
Measurement: 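High content images of wound closure area and cell nuclei counts, each the average of two wells, expressed against mock transfection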
Reading the numbers: migration relative to mock: higher = more migration into the scratch; mean nuclei count: higher = more cells remaining
Rule for the call: 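Called active when the migration ratio is 0.6 or lower (impaired) or 1.3 or higher (accelerated), but inactive whenever the mean nuclei count falls under 3300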
Calls: active = migration changed (impaired or accelerated); inactive = no migration change, or too few cells
Here is a random part of about 2,000 reagents tested. In the full data, 549 (27%) got an active call. 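Some migration ratios are negative; siRNAs with too few cells are inactive whatever their migration ratio.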 A number with no mark means an inactive call. Reagents against one gene are numbered here. Further read-outs or replicates are left out here. Not stated in the record: the time to read-out.

SLC25A34 #1
- migration relative to mock: 1.23
- mean nuclei count: 5830

SLC25A34 #2
- migration relative to mock: 0.92
- mean nuclei count: 5731

SLC25A34 #3
- migration relative to mock: 0.74
- mean nuclei count: 4806

SLC25A34 #4
- migration relative to mock: 0.92
- mean nuclei count: 5412

POMK (protein O-mannose kinase) #1
- migration relative to mock: 0.66
- mean nuclei count: 4321

POMK (protein O-mannose kinase) #2
- migration relative to mock: 0.99
- mean nuclei count: 5700

POMK (protein O-mannose kinase) #3
- migration relative to mock: 0.89
- mean nuclei count: 6356

POMK (protein O-mannose kinase) #4
- migration relative to mock: 0.98
- mean nuclei count: 5746

FLG2 (filaggrin 2) #1
- migration relative to mock: 0.41 (active)
- mean nuclei count: 4858

FLG2 (filaggrin 2) #2
- migration relative to mock: 0.9
- mean nuclei count: 4392

FLG2 (filaggrin 2) #3
- migration relative to mock: 0.96
- mean nuclei count: 6424

FLG2 (filaggrin 2) #4
- migration relative to mock: 0.48 (active)
- mean nuclei count: 5750

STAU1 (staufen double-stranded RNA binding protein 1) #1
- migration relative to mock: 0.6 (active)
- mean nuclei count: 6847

STAU1 (staufen double-stranded RNA binding protein 1) #2
- migration relative to mock: 1.03
- mean nuclei count: 6136

STAU1 (staufen double-stranded RNA binding protein 1) #3
- migration relative to mock: 0.9
- mean nuclei count: 4824

STAU1 (staufen double-stranded RNA binding protein 1) #4
- migration relative to mock: 1.03
- mean nuclei count: 4688

DCTN6 (dynactin subunit 6) #1
- migration relative to mock: 0.28 (active)
- mean nuclei count: 5172

DCTN6 (dynactin subunit 6) #2
- migration relative to mock: 1.08
- mean nuclei count: 4808

DCTN6 (dynactin subunit 6) #3
- migration relative to mock: 0.81
- mean nuclei count: 4968

DCTN6 (dynactin subunit 6) #4
- migration relative to mock: 0.86
- mean nuclei count: 5041

CHST5 (carbohydrate sulfotransferase 5) #1
- migration relative to mock: 0.61
- mean nuclei count: 5120

CHST5 (carbohydrate sulfotransferase 5) #2
- migration relative to mock: 0.46 (active)
- mean nuclei count: 5460

CHST5 (carbohydrate sulfotransferase 5) #3
- migration relative to mock: 0.86
- mean nuclei count: 6156

CHST5 (carbohydrate sulfotransferase 5) #4
- migration relative to mock: 0.37 (active)
- mean nuclei count: 5226

CMTM8 (CKLF like MARVEL transmembrane domain containing 8) #1
- migration relative to mock: 0.89
- mean nuclei count: 5658

CMTM8 (CKLF like MARVEL transmembrane domain containing 8) #2
- migration relative to mock: 0.5 (active)
- mean nuclei count: 4172

CMTM8 (CKLF like MARVEL transmembrane domain containing 8) #3
- migration relative to mock: 0.85
- mean nuclei count: 5819

CMTM8 (CKLF like MARVEL transmembrane domain containing 8) #4
- migration relative to mock: 0.31 (active)
- mean nuclei count: 5200

TNFRSF1B (TNF receptor superfamily member 1B) #1
- migration relative to mock: 0.8
- mean nuclei count: 5742

TNFRSF1B (TNF receptor superfamily member 1B) #2
- migration relative to mock: 0.14 (active)
- mean nuclei count: 3649

TNFRSF1B (TNF receptor superfamily member 1B) #3
- migration relative to mock: 0.69
- mean nuclei count: 4884

TNFRSF1B (TNF receptor superfamily member 1B) #4
- migration relative to mock: 0.6 (active)
- mean nuclei count: 5346

CDK20 (cyclin dependent kinase 20) #1
- migration relative to mock: 0.7
- mean nuclei count: 5678

CDK20 (cyclin dependent kinase 20) #2
- migration relative to mock: 0.65
- mean nuclei count: 4763

CDK20 (cyclin dependent kinase 20) #3
- migration relative to mock: -0.1
- mean nuclei count: 2776

CDK20 (cyclin dependent kinase 20) #4
- migration relative to mock: 0.84
- mean nuclei count: 6611

Quoted from above, 2 entries:
POMK (protein O-mannose kinase) #1
- migration relative to mock: 0.66
- mean nuclei count: 4321

POMK (protein O-mannose kinase) #2
- migration relative to mock: 0.99
- mean nuclei count: 5700
